Assay results published in PubChem BioAssay AID540303 (National Center for Advancing Translational Sciences (NCATS), 2011).
Among all 330,000 compounds or so, about 1,000 (0.3%) were called active. This list was built around the results that the source calls inconclusive (neither active nor inactive); the mix of calls is not that of the screen. The call rests on the fitted dose curve; in most records, active means well fitted inhibition curve with a large enough effect; inconclusive means small, poorly fitted or top-dose-only effect; inactive means no such curve, though single readings can be large or run the other way; tested in mouse RAW 264.7 cells. Where the call is inconclusive, the potency comes from a doubtful curve fit.

Assay: qHTS for Inhibitors of Cell Surface uPA Generation; further: nearly all actives have a fitted effect of over 55% in size
Conditions: cell surface uPA generation assay; series mostly up to 38.3 µM; activity change, negative = inhibition: at the top concentration
Method in brief: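 Validation set in qHTS format. RAW 264.7 cells were pre-plated overnight and then exposed to compounds (up to 38.3 uM final) for 24 h at 37 C in 5% CO2, followed by a luminescent ATP-Lite measurement.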
On the % scale 0 is the no-effect control and ±100 the full control effect; potency means the concentration at half of the fitted maximal effect.

SMILES | Potency | activity change, negative = inhibition
O=C(Nc1ccc2c(c1)OCCO2)c1ccccn1 | active: 3.55 µM | –
C=CC[C@@H](CC(=O)N[C@H](CO)Cc1ccccc1)C(=O)N[C@H](COC(=O)[C@@H](CC=C)Cc1ccc(F)cc1)C(C)(C)C | inconclusive: 6.31 µM [inhibitor, partial curve, poor fit] | –
CCc1cccc2c(C(=O)CN3C(=O)N(C)C4(CCCCC4)C3=O)c[nH]c12 | inconclusive: 0.794 µM [inhibitor, full curve, poor fit] | –
O=C(Nc1cccc(S(=O)(=O)N2CCCCCC2)c1)c1cc(=O)c2ccccc2o1 | – | inactive: -19.1%
Nc1ccc2nc(-c3ccc(Cl)cc3)[nH]c2c1 | active: 4.47 µM | –
COc1ccc(C)cc1NC(=O)CN(C)S(=O)(=O)c1ccc2c(c1)CC(C)N2C(C)=O (stereo not given) | inconclusive: 10 µM [inhibitor, partial curve, poor fit] | –
CCc1ccc(S(=O)(=O)Nc2cc3c(cc2C)n(C)c(=O)n3C)cc1 | inconclusive: 2.82 µM [inhibitor, single point] | –
COC(=O)C1=C(C)NC(=O)/C1=C\c1cc(C)n(-c2ccccc2)c1C | – | inactive: 0.811%
O=C(Nc1ccc2[nH]ccc2c1)c1cccs1 | active: 7.08 µM | –
COc1ccc(C(=O)COC(=O)c2ccc(N(C)C)cc2)cc1 | – | inactive: 1.39%
CCCCN(C)c1nc(-c2ccco2)c2c(c1C#N)CC(C)(C)OC2 | inconclusive: 12.6 µM [inhibitor, single point] | –
CC1CC(C)CN(C(=O)C(C)N2CCN(S(=O)(=O)c3cccs3)CC2)C1 (stereo not given) | inconclusive: 2 µM [inhibitor, single point] | –
Cc1cc(/C=C(\C#N)C(=O)NC2CCCCCC2)c(C)[nH]1 | – | inactive: 0.867%
Cc1cc(C)c2c(n1)sc1c(N3CCN(CCO)CC3)ncnc12 | inconclusive: 7.08 µM [inhibitor, single point] | –
Cc1ccc(/C=N/NC(=O)c2cc(-c3ccc(C)o3)[nH]n2)cc1 | – | inactive: -2.94%
CC(=O)N1CCc2ccc(S(=O)(=O)N3CCc4ccccc43)cc21 | inconclusive: 7.94 µM [inhibitor, single point] | –
COCOc1ccc(/C=C/C(=O)c2c(O)cc(OCOC)cc2OCOC)cc1 | inconclusive: 12.6 µM [inhibitor, partial curve, poor fit] | –
COCc1cc(C)nc2sc(C(=O)Nc3nccs3)c(N)c12 | – | inactive: -16.4%

SMILES | Potency | activity change, negative = inhibition
COC(=O)[C@@H](NC(=O)c1cc(COc2cncc(Cl)c2)on1)c1ccccc1 | inconclusive: 2.82 µM [inhibitor, partial curve, poor fit] | –
O=C(Nc1ccc(N2CCOCC2)c(Cl)c1)c1ccc([N+](=O)[O-])o1 | inconclusive: 4.47 µM [inhibitor, partial curve, poor fit] | –
COc1ccc(OC)c(Nc2nc(-c3sc(NC(=O)C(C)(C)C)nc3C)cs2)c1 | inconclusive: 7.94 µM [inhibitor, single point] | –
O=C(NNC(=O)c1ccc(Cl)cc1Cl)c1cnccn1 | inconclusive: 12.6 µM [inhibitor, single point] | –
COc1ccc(C(NC(C)=O)c2cc(Cl)c3cccnc3c2O)cc1 (stereo not given) | active: 6.31 µM | –
Cc1ccc(C)c(C(=O)OCC(=O)Nc2cccc(S(=O)(=O)N3CCCCC3)c2)c1 | inconclusive: 22.4 µM [inhibitor, single point] | –
C=CCOc1cccc(CNn2nnnc2N)c1 | – | inactive: 3.73%
O=c1c2ccccc2oc2ccc(NCCCn3ccnc3)cc12 | active: 4.47 µM | –
O=C1OC(CN2CCOCC2)CN1N=Cc1ccc([N+](=O)[O-])o1 (stereo not given) | inconclusive: 12.6 µM [inhibitor, single point] | –
CCCN1CCN(CCCNC(=O)c2cc3c(=O)[nH]c4ccccc4c3s2)CC1 | inconclusive: 8.91 µM [inhibitor, single point] | –
CC1CCN(S(=O)(=O)c2ccc(C(=O)NCc3cccnc3)cc2)CC1 | – | inactive: 2.65%
CCOc1ccc(-c2cc(C(=O)NCCCn3ccnc3)c3ccccc3n2)cc1 | inconclusive: 12.6 µM [inhibitor, single point] | –
O=C(NCc1ccccc1)C1CCCN1S(=O)(=O)c1ccc(Cl)cc1 (stereo not given) | inconclusive: 0.0126 µM [inhibitor, full curve, poor fit] | –
CSCc1ccc(C(=O)NCc2ccccc2)cc1 | – | inactive: -1.75%
CCOC(=O)C(C)Oc1cccc2c(=O)n(CC(=O)NCc3ccco3)ccc12 (stereo not given) | inconclusive: 0.0708 µM [inhibitor, full curve, poor fit] | –
CCC(C)c1ccc(NC(=O)Nc2cnccn2)cc1 (stereo not given) | inconclusive: 0.794 µM [inhibitor, full curve, poor fit] | –
C[C@H](NC(=O)c1ccc2ccccc2c1)C(=O)N1CCC2(CC1)NCCc1[nH]cnc12 | inconclusive: 12.6 µM [inhibitor, single point] | –

Two of the compounds above, field by field.
O=C(NCc1ccccc1)C1CCCN1S(=O)(=O)c1ccc(Cl)cc1 (stereo not given)
  Potency: inconclusive: 0.0126 µM [inhibitor, full curve, poor fit]
CSCc1ccc(C(=O)NCc2ccccc2)cc1
  activity change, negative = inhibition: inactive: -1.75%
